The record followed here is PubChem BioAssay AID248 (DTP/NCI, 2004).

The list is a part of this screen's results and no random one: it is rich in T/C values a quarter to a half above the control, in often repeated tests (any T/C) and in doses without a T/C. Further doses and runs are listed elsewhere. T/C: endpoint of the treated group in % of that of the vehicle group. Some doses have a count of surviving animals in place of a T/C: the source files T/C as zero there, which appears to mark a toxic dose or a test without result, not a measured value. Some survivor counts are full or nearly so, which does not show that the dose was tolerated: survival well below the control is almost never listed, so the zero probably covers shortened survival too. Survivors were counted at the toxicity check, usually on the fifth day, unless a day is given; later deaths do not show. Schedule codes are those of the source, read here as Q, the interval in days (D) or hours (H), X, the number of doses. Some entries were tested several times; the values are given in rising order. Some schedule codes hold Z or #, which are not explained here. Where survival is the endpoint, this PubChem deposit counts one and a half times the control or more as active, and values a quarter to a half above the control carry no call in these data; other NCI protocols may use other cut-offs. Some T/C values carry the count of animals alive at the toxicity check (mostly the fifth day); without a count, all were alive then. Counts like (3×) stand for listed records that agree.

The experiment relates to L1210 leukemia ip in BDF1 mice, survival T/C. Description: NCI In Vivo Anticancer Drug Screen. Data for tumor model L1210 Leukemia (intraperitoneal) in B6D2F1 (BDF1) mice. The note with it: T/C endpoint: mean survival time, higher T/C = longer survival.
The mark [1] stands for this setting: dose: 100.0 mg/kg/injection, schedule: Q01DX009 (ip), vehicle: saline with Tween-80.
[2] abbreviates: dose: 200.0 mg/kg/injection, schedule: Q01DX009 (ip), vehicle: saline with Tween-80.
The mark [3] stands for this setting: dose: 200.0 mg/kg/injection, schedule: Q04DX002 (ip), vehicle: saline with Tween-80.
The mark [4] stands for this setting: dose: 400.0 mg/kg/injection, schedule: Q04DX002 (ip), vehicle: saline with Tween-80.
[5] abbreviates: dose: 200.0 mg/kg/injection, schedule: Q01DX001 (ip), vehicle: carboxymethylcellulose (CMC).
The mark [6] stands for this setting: dose: 400.0 mg/kg/injection, schedule: Q04DX003 (ip), vehicle: saline.
[7] abbreviates: dose: 100.0 mg/kg/injection, schedule: Q01DX001 (ip), vehicle: saline.
Setting [8] is: dose: 200.0 mg/kg/injection, schedule: Q01DX009 (ip), vehicle: saline.
[9] abbreviates: dose: 400.0 mg/kg/injection, schedule: Q01DX001 (ip), vehicle: saline.
The mark [10] stands for this setting: dose: 200.0 mg/kg/injection, schedule: Q04DX003 (ip), vehicle: saline.

On to `O=C1OC(O)c2cccc3cccc1c23` (centres undefined), for which the T/C is 91, 96, 97, 101, 115 % of control (dose: 25.0 mg/kg/injection, schedule: Q01DX009 (ip), vehicle: saline with Tween-80); 90, 92 (2×), 104, 110, 115, 148 % of control (dose: 50.0 mg/kg/injection, schedule: Q01DX009 (ip), vehicle: saline with Tween-80); 96 (2×), 97 (2×), 103 [5 of 6 alive], 106 [2 of 3 alive], 107, 108 % of control [2 of 3 alive] under setting [1]; 91, 98 [5 of 6 alive] (2×), 100 % of control (dose: 100.0 mg/kg/injection, schedule: Q04DX002 (ip), vehicle: saline with Tween-80); 98 [4 of 6 alive], 110 [2 of 3 alive], 114 % of control [2 of 3 alive] under setting [2]; 90, 93, 94 [5 of 6 alive], 98 % of control under setting [3]. In addition, the T/C under setting [4] was 100, 103 [4 of 6 alive], 103 % of control [5 of 6 alive]. Moreover, the survivor count is, setting by setting: under setting [1], 2 of 6; under setting [2], 1 of 6 and 1 of 3; (dose: 400.0 mg/kg/injection, schedule: Q01DX009 (ip), vehicle: saline with Tween-80) 0 of 3 and 0 of 6; under setting [4], 1 of 3.

For the compound `CCCCc1c(N)nc(N)nc1N`, the survivor count is, setting by setting: (dose: 150.0 mg/kg/injection, schedule: Q01DX001 (ip), vehicle: saline with Tween-80) 0 of 6; (dose: 300.0 mg/kg/injection, schedule: Q01DX001 (ip), vehicle: saline with Tween-80) 0 of 6.

In the case of `O=C1NCCc2c1sc1ccccc21`, the survivor count under setting [5] is 4 of 4.

Take `Cc1ncc(C)c(=O)[nH]1`: under setting [6], the survivor count is 0 of 6.

Take `CC(C)NC(C)Cc1ccccc1` (centres undefined): the survivor count under setting [7] is listed as 3 of 6.

Consider `O=c1c2cc([N+](=O)[O-])cc3c2-c2c4c(cc([N+](=O)[O-])cc14)c(O)c1cc([N+](=O)[O-])cc(c3=O)c21`, for which the T/C (dose: 264.0 mg/kg/injection, schedule: Q04DX003 (ip), vehicle: acetone) is 139 % of control; the T/C (dose: 400.0 mg/kg/injection, schedule: Q04DX003 (ip), vehicle: acetone) was 126 and 132 % of control.

For the compound `O=C(N/N=C\c1cc(Cl)ccc1[N+](=O)[O-])c1ccco1`, the survivor count is, setting by setting: (dose: 100.0 mg/kg/injection, schedule: Q01DX001 (ip), vehicle: other) 4 of 4; (dose: 400.0 mg/kg/injection, schedule: Q01DX001 (ip), vehicle: other) 2 of 4.

Regarding `CCC(Br)C(=O)O` (centres undefined), the survivor count runs as follows: under setting [8], 1 of 3 and 3 of 6; under setting [9], 0 of 6; (dose: 400.0 mg/kg/injection, schedule: Q04DX002 (ip), vehicle: saline) 2 of 3.

Take `CC(=O)N(C)N`: the survivor count reads like this: under setting [8], 2 of 6; under setting [6], 6 of 6.

As for `O=C(Nc1cccnc1)c1cccc([N+](=O)[O-])c1`, where the note is “dose: 100.0 mg/kg/injection, schedule: Q04DX002 (ip), vehicle: Klucel (hydroxypropylcellulose) (HPC)”, the T/C was 125 % of control [2 of 3 alive].

For the compound `[Br][Pb]([c]1ccccc1)([c]1ccccc1)[c]1ccccc1`, the survivor count is 6 of 6 (dose: 12.5 mg/kg/injection, schedule: Q04DX003 (ip), vehicle: saline); 2 of 6 (dose: 25.0 mg/kg/injection, schedule: Q04DX003 (ip), vehicle: saline); 0 of 6 (dose: 50.0 mg/kg/injection, schedule: Q04DX003 (ip), vehicle: saline); 1 of 6 (dose: 100.0 mg/kg/injection, schedule: Q04DX003 (ip), vehicle: saline); 0 of 6 under setting [10]; 0 of 6 under setting [6].

Take `NC(CSSc1ccccc1)=NC1CCCCC1`: the survivor count by setting is: (dose: 100.0 mg/kg/injection, schedule: Q01DX001 (ip), vehicle: Klucel (hydroxypropylcellulose) (HPC)) 0 of 3; (dose: 200.0 mg/kg/injection, schedule: Q01DX001 (ip), vehicle: Klucel (hydroxypropylcellulose) (HPC)) 0 of 3; (dose: 400.0 mg/kg/injection, schedule: Q01DX001 (ip), vehicle: Klucel (hydroxypropylcellulose) (HPC)) 0 of 3.

For the compound `C1=C(c2ccccc2)S/C(=C/c2ccccc2)S1`, the survivor count is given as 6 of 6 (dose: 100.0 mg/kg/injection, schedule: Q01DX001 (ip), vehicle: carboxymethylcellulose (CMC)); 6 of 6 under setting [5]; 6 of 6 under setting [10].

On to `Nc1cccc(CC(=O)c2ccccc2)n1`, for which the survivor count runs as follows: under setting [7], 3 of 6; under setting [9], 1 of 6.

`CCOP(=O)(OCC)SC=C(Cl)Cl`: the survivor count is 2 of 3 under setting [3] and 0 of 3 under setting [4].

As for `Cc1cnc(-n2nc(-c3ccccc3)c3c2-c2ccccc2C3)nc1-c1ccccc1O`, the survivor count was 3 of 3 (dose: 25.0 mg/kg/injection, schedule: Q01DX009 (ip), vehicle: Klucel (hydroxypropylcellulose) (HPC)); 3 of 3 (dose: 50.0 mg/kg/injection, schedule: Q01DX009 (ip), vehicle: Klucel (hydroxypropylcellulose) (HPC)); 3 of 3 (dose: 100.0 mg/kg/injection, schedule: Q01DX009 (ip), vehicle: Klucel (hydroxypropylcellulose) (HPC)); 3 of 3 (dose: 200.0 mg/kg/injection, schedule: Q01DX009 (ip), vehicle: Klucel (hydroxypropylcellulose) (HPC)).

Consider `Cc1nc(N=C(N)N)nc2ccc(Cl)cc12`, for which the survivor count was 1 of 6 (dose: 150.0 mg/kg/injection, schedule: Q01DX001 (ip), vehicle: saline) and 0 of 6 (dose: 300.0 mg/kg/injection, schedule: Q01DX001 (ip), vehicle: saline).

Take `O=[N+]([O-])c1ccc(S(=O)(=O)O)c([N+](=O)[O-])c1.[Ag]`: the survivor count is, setting by setting: (dose: 25.0 mg/kg/injection, schedule: Q01DX009 (ip), vehicle: other) 5 of 6; (dose: 50.0 mg/kg/injection, schedule: Q01DX009 (ip), vehicle: other) 0 of 6; (dose: 100.0 mg/kg/injection, schedule: Q04DX003 (ip), vehicle: other) 1 of 6; (dose: 200.0 mg/kg/injection, schedule: Q04DX003 (ip), vehicle: other) 0 of 6; (dose: 400.0 mg/kg/injection, schedule: Q04DX003 (ip), vehicle: other) 0 of 6.

Regarding `COc1cc(NC(C)CCCN)c2nc(OCc3ccccc3)ccc2c1` (centres undefined), the survivor count is on record as 1 of 6 (dose: 100.0 mg/kg/injection, schedule: Q04DX003 (ip), vehicle: saline with Tween-80); 0 of 6 (dose: 200.0 mg/kg/injection, schedule: Q04DX003 (ip), vehicle: saline with Tween-80); 0 of 6 (dose: 400.0 mg/kg/injection, schedule: Q04DX003 (ip), vehicle: saline with Tween-80).

As to `CS(=O)(=O)OCCN(CCOS(C)(=O)=O)c1cccc(C(F)(F)F)c1`, the T/C runs as follows: (dose: 38.0 mg/kg/injection, schedule: Q01DX015 (ip), vehicle: saline) 127 % of control; (dose: 40.0 mg/kg/injection, schedule: Q01DX001 (ip), vehicle: saline) 132 % of control. Also, the survivor count (dose: 80.0 mg/kg/injection, schedule: Q01DX001 (ip), vehicle: saline) is given as 3 of 4.

As to `CCCCc1cccc(N2C(N)=NC(N)=NC2(C)C)c1`, the survivor count reads like this: under setting [7], 1 of 6 and 2 of 6; (dose: 200.0 mg/kg/injection, schedule: Q01DX001 (ip), vehicle: saline) 0 of 6; under setting [9], 0 of 6.

As to `C=C(C)CSc1ncnc2nc[nH]c12`, the survivor count (dose: 180.0 mg/kg/injection, schedule: Q01DX Z (ip), vehicle: other) is 3 of 6.

Take `Cc1ccc(S(=O)(=O)NC(CCC(=O)O)C(=O)O)cc1` (centres undefined): under setting [9], the survivor count was 1 of 4.
